Screen size: about 300,000 compounds; about 5,400 (1.8%) were called active. This list was built around the results that the source calls inconclusive (neither active nor inactive); the mix of calls is not that of the screen. Calls follow the shape of the full dose curve; tested in HEK293 cells. Where the call is inconclusive, the potency comes from a doubtful curve fit.
experiment: qHTS for inhibitors of binding or entry into cells for Marburg Virus; settings: Marburg virus pseudotyped entry inhibition, cell reporter; activity change, negative = inhibition: at 37.8 µM (top of the series) unless noted
% is scaled to controls: 0 for no effect and ±100 for the full control effect; potency is read from the fitted curve at half-maximal effect.

Row | Compound | Potency | activity change, negative = inhibition
1 | CCOc1cc2c3c(c1)C1(C(=O)N3C(C)(C)CC2C)C(C#N)=C(N)N2C(=C1C#N)Nc1ccccc12 (stereo not drawn) | inconclusive: 11.2 µM [inhibitor, single point] | 
2 | CCOC(=O)CN1C(c2ccc(O)cc2)Nc2ccc(Br)cc2C1c1ccccc1 (stereo not drawn) | inconclusive: 35.5 µM [inhibitor, partial curve, poor fit] | 
3 | Cc1cccc2cc(CN(CC3CCCO3)C(c3nnnn3Cc3ccco3)C(C)C)c(=O)[nH]c12 (stereo not drawn) | inconclusive: 35.5 µM [inhibitor, single point] | 
4 | CSCCC(NC(=O)c1ccc(Cl)c([N+](=O)[O-])c1)C(=O)N1CCN(C/C=C/c2ccccc2)CC1 (stereo not drawn) | inconclusive: 35.5 µM [inhibitor, single point] | 
5 | O=C(NC(=S)NCCC1=CCCCC1)c1ccc(Br)o1 | inconclusive: 35.5 µM [inhibitor, single point] | 
6 | CCN(CC)c1nc(C#N)cc(-c2ccc(OC)cc2)n1 | inconclusive: 3.55 µM [inhibitor, full curve] | 
7 | COc1ccc(CCNC(=O)C(=O)NCc2ccc(C(C)C)cc2)cc1OC |  | inactive: -1.39%
8 | CC(C)CCn1c(N)c(C(=O)NCc2cccs2)c2nc3ccccc3nc21 | inconclusive: 25.9 µM [inhibitor, single point] | 
9 | Nc1nnc(SCc2ccc(F)cc2)s1 |  | inactive: 10.9%
10 | Cc1cc2oc(C(=O)Nc3cccc(-c4nc5ccccc5o4)c3)c(C)c2cc1C | inconclusive: 35.5 µM [activator, partial curve, poor fit] | 
11 | Cc1ccc(C(=O)ON=C2CCN(c3ccc([N+](=O)[O-])cc3)CC2)cc1 | inconclusive: 29.1 µM [activator, single point] | 
12 | CCCN(CCC)Cc1c(C(=O)N/N=C/c2ccc(Br)cc2)nnn1-c1nonc1N | inconclusive: 11.2 µM [inhibitor, partial curve, poor fit] | 
13 | N#Cc1c(N)nc(SCC(=O)OCc2ccccc2)c(C#N)c1-c1ccco1 |  | inactive: -13.1%
14 | O=C(/C=C/c1cccc([N+](=O)[O-])c1)NC(=S)Nc1ccc(CN2CCOCC2)cc1 |  | inactive: 3.04%
15 | O=C(Nc1ccccc1Cl)c1cc2ccccc2o/c1=N\O |  | inactive: 11% [at 46.1 µM]
16 | COc1ccc(-c2nc(CN3CCN(c4ncnc5ccccc45)CC3)c(C)o2)c(OC)c1 | active: 14.6 µM | 
17 | Cc1sc(NC(=O)CN(Cc2ccc(F)cc2)C(=O)C(C)(C)C)c(C(N)=O)c1C | inconclusive: 5.62 µM [inhibitor, single point] | 
18 | NS(=O)(=O)c1cccc(NC(=O)COC(=O)COc2ccc3ccccc3c2)c1 | inconclusive: 2.82 µM [activator, partial curve, poor fit] | 

Entries 10 through 11, quoted:
Row | Compound | Potency | activity change, negative = inhibition
10 | Cc1cc2oc(C(=O)Nc3cccc(-c4nc5ccccc5o4)c3)c(C)c2cc1C | inconclusive: 35.5 µM [activator, partial curve, poor fit] | 
11 | Cc1ccc(C(=O)ON=C2CCN(c3ccc([N+](=O)[O-])cc3)CC2)cc1 | inconclusive: 29.1 µM [activator, single point] | 

— PubChem BioAssay AID540276 (National Center for Advancing Translational Sciences (NCATS), 2011)
